Source: patent publication US10046060B2, “Co-administration of an agent linked to an internalization peptide with an anti-inflammatory” (NoNO Inc., priority 2007, dated 2018)
Some results were stated once for a whole list of compounds, not compound by compound. Ends that are not written are not given here.

Tested on: rats
Experiment: Mean arterial pressure (MAP) in rats after Tat peptides with or without anti-inflammatory agents
Settings: 7.5 mg/kg bolus; FIG. 7

YGRKKRRQRRRKLSSIESDV [Tat-NR2B9c]
Period of MAP reduction after injection: 0 to 6 min
